We go through 37 targets from the supplement of paper PMC11732987, “Enantioselective OTUD7B fragment discovery through chemoproteomics screening and high-throughput optimisation” (Communications Chemistry, 2025).

Sequences of proteins named here, by UniProt entry; tags and fusion partners are left off. A change or cut given only in a name is not applied to a line headed by its entry. Residues count along the entry.
UniProt Q92576, 1757-1778: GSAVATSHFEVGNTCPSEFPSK
UniProt Q92576, whole entry, looked up: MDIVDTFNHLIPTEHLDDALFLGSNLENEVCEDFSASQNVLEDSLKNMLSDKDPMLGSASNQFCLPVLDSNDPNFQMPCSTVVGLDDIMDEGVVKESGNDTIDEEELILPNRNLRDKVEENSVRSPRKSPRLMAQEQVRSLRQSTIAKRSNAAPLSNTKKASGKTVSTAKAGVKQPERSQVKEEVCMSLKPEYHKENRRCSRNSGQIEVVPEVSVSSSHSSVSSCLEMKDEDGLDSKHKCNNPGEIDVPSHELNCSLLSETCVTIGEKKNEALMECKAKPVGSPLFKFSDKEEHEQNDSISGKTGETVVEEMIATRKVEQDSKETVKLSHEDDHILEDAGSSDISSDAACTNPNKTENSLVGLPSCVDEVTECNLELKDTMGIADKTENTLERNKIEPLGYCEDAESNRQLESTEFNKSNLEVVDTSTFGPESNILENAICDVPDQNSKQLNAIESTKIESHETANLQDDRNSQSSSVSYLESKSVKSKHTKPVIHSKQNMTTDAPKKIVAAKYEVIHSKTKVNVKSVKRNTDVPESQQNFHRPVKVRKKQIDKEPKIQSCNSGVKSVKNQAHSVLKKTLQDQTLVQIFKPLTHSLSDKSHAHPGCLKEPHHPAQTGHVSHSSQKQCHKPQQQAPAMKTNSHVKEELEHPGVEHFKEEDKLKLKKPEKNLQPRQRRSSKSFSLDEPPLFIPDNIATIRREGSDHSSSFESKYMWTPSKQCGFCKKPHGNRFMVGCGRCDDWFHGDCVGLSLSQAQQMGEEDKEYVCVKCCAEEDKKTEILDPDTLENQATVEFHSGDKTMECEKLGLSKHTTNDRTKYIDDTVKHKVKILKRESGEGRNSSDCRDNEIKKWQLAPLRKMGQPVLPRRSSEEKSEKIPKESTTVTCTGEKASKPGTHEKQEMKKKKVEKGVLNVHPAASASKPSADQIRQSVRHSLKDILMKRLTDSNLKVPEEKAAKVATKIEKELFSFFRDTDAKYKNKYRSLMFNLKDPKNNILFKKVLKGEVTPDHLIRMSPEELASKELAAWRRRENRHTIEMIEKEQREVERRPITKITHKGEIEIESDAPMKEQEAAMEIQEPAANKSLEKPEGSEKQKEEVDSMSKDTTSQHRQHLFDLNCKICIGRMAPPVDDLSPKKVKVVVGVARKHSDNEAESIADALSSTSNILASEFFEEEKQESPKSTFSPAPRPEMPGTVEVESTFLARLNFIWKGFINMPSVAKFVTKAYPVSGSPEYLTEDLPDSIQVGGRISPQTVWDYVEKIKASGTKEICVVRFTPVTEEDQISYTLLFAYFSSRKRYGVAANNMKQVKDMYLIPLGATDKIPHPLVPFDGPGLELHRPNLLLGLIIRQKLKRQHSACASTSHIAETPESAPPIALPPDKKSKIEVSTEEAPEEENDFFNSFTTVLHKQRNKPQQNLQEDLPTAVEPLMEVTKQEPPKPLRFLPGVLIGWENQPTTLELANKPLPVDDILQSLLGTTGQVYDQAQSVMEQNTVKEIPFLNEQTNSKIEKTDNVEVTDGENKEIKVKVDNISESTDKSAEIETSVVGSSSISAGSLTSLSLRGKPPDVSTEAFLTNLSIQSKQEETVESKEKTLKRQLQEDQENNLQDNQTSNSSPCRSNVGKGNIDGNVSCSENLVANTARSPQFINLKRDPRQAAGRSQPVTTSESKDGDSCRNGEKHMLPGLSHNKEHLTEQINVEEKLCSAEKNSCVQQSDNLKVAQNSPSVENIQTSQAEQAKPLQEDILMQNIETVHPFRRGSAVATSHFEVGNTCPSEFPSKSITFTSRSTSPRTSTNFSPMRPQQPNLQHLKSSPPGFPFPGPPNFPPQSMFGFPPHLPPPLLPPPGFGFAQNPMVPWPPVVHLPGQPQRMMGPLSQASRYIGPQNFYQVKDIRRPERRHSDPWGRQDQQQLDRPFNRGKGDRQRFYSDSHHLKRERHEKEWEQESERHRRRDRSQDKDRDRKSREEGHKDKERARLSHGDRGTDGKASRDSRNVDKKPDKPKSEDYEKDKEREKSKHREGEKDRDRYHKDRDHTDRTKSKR
UniProt P09884: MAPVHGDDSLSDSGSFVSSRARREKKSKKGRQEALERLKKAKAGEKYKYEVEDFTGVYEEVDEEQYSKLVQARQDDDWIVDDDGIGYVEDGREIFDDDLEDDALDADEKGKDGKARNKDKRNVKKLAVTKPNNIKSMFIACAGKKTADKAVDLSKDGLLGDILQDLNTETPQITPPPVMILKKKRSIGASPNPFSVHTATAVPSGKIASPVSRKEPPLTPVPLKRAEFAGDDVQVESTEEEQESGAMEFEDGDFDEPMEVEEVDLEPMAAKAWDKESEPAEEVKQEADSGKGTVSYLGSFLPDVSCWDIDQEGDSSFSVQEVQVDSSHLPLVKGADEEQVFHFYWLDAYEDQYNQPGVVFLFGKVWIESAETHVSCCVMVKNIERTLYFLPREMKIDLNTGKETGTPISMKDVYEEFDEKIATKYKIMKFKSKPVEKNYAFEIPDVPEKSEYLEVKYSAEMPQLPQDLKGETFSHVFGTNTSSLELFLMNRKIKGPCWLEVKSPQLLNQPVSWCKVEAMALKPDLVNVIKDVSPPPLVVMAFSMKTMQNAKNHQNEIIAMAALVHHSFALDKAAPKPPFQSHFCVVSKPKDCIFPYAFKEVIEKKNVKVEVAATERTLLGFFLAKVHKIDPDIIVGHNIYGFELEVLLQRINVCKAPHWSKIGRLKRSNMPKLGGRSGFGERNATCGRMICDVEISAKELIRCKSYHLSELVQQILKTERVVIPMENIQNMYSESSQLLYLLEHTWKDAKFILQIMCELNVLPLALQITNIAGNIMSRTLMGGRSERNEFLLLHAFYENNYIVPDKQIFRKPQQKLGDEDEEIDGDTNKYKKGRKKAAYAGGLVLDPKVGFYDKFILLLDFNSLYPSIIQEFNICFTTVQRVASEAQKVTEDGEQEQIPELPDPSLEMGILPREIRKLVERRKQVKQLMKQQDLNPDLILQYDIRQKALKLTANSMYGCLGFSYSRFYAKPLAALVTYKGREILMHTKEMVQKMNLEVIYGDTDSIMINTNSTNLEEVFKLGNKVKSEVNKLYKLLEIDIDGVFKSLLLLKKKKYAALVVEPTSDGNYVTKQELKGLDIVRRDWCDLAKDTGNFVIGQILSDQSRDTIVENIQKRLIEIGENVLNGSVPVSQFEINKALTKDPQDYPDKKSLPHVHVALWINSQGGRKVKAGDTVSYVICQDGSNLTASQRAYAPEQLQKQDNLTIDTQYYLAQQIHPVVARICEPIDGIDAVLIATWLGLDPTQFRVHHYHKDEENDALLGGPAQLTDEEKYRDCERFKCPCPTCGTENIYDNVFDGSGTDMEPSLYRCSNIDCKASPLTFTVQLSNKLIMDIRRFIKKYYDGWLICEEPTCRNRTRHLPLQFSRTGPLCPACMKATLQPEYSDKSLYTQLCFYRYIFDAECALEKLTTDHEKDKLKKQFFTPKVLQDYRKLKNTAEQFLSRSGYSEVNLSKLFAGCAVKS
UniProt Q7Z7B1: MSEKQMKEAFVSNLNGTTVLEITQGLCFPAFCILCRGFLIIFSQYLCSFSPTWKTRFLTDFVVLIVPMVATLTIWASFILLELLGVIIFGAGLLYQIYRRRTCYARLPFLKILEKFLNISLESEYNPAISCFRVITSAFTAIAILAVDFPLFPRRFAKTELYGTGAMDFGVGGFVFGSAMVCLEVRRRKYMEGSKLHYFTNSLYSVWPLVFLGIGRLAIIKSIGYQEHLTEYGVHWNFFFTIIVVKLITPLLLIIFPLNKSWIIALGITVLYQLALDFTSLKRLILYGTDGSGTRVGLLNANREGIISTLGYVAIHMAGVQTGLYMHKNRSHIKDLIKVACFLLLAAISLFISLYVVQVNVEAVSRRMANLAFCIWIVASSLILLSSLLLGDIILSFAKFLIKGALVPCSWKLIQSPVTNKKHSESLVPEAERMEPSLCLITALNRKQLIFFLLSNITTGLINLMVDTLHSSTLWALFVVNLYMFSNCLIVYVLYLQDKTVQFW
UniProt Q9H8W4, 140-160: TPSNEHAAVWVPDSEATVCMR
UniProt P37287, 333-353: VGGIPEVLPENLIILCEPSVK
UniProt Q99959: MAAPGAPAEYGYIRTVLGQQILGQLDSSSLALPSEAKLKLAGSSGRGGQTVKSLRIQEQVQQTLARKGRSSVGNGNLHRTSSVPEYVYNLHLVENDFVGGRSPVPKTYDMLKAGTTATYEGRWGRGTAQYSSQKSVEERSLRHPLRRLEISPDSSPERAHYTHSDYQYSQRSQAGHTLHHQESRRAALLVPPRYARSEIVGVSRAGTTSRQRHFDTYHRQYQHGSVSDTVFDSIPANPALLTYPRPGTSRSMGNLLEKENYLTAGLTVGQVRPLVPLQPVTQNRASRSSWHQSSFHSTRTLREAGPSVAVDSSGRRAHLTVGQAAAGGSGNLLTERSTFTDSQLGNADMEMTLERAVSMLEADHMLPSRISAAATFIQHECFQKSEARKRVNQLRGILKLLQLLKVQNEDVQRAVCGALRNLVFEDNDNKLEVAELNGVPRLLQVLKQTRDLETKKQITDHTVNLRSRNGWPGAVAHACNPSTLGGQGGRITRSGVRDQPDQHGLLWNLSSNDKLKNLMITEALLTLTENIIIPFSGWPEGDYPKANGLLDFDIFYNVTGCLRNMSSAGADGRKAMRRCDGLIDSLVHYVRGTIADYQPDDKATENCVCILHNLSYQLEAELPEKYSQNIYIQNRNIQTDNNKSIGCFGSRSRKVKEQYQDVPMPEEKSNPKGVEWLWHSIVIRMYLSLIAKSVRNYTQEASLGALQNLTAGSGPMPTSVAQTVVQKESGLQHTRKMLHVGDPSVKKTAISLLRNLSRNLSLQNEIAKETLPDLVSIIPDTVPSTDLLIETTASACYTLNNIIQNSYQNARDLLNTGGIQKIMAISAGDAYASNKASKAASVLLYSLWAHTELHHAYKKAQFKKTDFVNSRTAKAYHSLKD
UniProt Q8TC44: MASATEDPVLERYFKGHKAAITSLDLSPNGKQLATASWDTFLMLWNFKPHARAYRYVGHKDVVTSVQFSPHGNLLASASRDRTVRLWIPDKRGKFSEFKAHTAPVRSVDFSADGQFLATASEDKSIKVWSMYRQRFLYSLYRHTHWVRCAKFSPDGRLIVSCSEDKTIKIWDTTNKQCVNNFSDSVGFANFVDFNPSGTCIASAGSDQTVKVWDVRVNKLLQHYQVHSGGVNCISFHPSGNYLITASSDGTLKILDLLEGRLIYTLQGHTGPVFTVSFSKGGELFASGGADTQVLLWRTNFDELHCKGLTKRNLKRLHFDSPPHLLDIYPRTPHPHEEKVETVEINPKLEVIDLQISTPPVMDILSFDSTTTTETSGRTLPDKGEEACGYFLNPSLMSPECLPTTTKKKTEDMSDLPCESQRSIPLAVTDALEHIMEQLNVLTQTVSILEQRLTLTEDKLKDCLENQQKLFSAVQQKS
UniProt Q6IQ23: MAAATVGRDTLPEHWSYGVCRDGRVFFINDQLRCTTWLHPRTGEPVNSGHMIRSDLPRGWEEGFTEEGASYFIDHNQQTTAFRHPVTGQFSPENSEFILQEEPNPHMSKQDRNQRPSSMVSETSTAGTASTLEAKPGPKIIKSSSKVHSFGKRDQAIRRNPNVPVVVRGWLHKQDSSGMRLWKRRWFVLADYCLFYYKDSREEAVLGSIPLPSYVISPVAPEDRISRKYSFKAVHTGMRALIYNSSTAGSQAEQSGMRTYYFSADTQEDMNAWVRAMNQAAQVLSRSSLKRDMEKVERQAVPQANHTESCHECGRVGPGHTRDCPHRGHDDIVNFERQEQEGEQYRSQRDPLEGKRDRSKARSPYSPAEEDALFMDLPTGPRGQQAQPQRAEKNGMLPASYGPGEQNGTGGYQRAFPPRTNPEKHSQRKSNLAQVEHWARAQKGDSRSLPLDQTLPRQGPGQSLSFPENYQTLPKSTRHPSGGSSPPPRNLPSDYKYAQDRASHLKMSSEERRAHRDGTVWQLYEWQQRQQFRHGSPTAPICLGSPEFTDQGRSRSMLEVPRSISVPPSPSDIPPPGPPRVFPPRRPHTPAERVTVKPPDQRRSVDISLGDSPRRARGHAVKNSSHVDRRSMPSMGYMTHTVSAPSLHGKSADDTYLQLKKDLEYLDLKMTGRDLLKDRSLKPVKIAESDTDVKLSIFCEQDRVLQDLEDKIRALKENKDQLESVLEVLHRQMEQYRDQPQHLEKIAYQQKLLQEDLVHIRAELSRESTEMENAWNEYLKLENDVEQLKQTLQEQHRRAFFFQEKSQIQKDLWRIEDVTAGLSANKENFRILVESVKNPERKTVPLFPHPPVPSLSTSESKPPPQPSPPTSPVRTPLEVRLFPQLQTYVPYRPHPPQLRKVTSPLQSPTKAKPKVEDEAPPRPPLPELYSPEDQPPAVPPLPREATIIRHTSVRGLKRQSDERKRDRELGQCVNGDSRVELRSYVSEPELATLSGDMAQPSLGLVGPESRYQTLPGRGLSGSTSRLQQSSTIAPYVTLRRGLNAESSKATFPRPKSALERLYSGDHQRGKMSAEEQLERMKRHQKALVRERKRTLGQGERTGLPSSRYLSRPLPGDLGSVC

The list shows a part of the results. The data scatter; read single values as rough.

Compound in this experiment: ClCC(=O)N[C@H]1CCCc2ccccc12
Description: log2 mean competition ratio of IA-DTB cysteine labelling (DMSO/compound) (log2 ratio); higher = stronger cysteine engagement by compound. To be noted: 200 µM; treatment time: 4 h; cell line lysate: HEK293T. How it is done:
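IA-DTB competitive cysteine chemoproteomics in HEK293T RIPA lysate. Lysates were treated with compound 29 or 30 at 50 or 200 µM for 4 h, then IA-DTB (500 µM, 1 h), trypsin-digested, NeutrAvidin-enriched and analysed by diaPASEF. Competition ratio = intensity DMSO / intensity compound (n=4 treated, n=64 DMSO); binding: mean log2 CR ≥ 1 and p ≤ 0.05 plus QC filters. Target is the cysteine site.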
Take PMPCB C277 (UniProt O75439): the “log2 mean competition ratio” value was -0.0487. For PHRF1 C710 (UniProt Q9P1Y6) the value was 0.238; for PLIN2 C302 (UniProt Q99541), -0.316; for PIK3CD C366 (UniProt O00329), 0.337. For PHF3 C186 (UniProt Q92576) the value was -0.176; for PMS2 C653 (UniProt P54278), -0.165. For PM20D2 C30 (UniProt Q8IYS1), the “log2 mean competition ratio” value was 0.269. For PLA2G4A C726 (UniProt P47712) the value was -0.145; for POLA1 C1458 (UniProt P09884), 0.0524; for PIGW C409 (UniProt Q7Z7B1), 0.109. For PNMA3 C130 the value was -0.101; for POLR1A C733 (UniProt O95602), 0.143; for PHKG2 C188 (UniProt P15735), 0.0678. For POLD1 C761 (UniProt P28340) the value was 0.386; for PHKB C348 (UniProt Q93100), -0.143. Take PMM1 C145 (UniProt Q92871): the “log2 mean competition ratio” value is 0.136. In the case of POGZ C1267 (UniProt Q7Z3K3), the “log2 mean competition ratio” value came out at 0.0583.

Consider PLCH1 C1279 (UniProt Q4KWH8), for which the “log2 mean competition ratio” value came out at 0.0848. For PLEKHF2 C158 (UniProt Q9H8W4) the value was -0.0738. For PMS1 C243 (UniProt P54277) the value was 0.275. As for POLR1F C47, the “log2 mean competition ratio” value stood at 0.178.

On to PHKA1 C551 (UniProt P46020), for which the “log2 mean competition ratio” value is -0.0933.

Regarding POLR1A C746 (UniProt O95602), the “log2 mean competition ratio” value was -0.0249. As for PIK3R1 C498 (UniProt P27986), the “log2 mean competition ratio” value was -0.292. For PIGA C348 (UniProt P37287) the value was 0.276; for PIK3C2A C669 (UniProt O00443), 0.11; for PHF3 C1771 (UniProt Q92576), 0.0451.

As for PHF3 C885 (UniProt Q92576), the “log2 mean competition ratio” value was -0.0486. For PKP2 C647 (UniProt Q99959) the value was 0.241; for POC1B C418 (UniProt Q8TC44), 0.334. For PLCG2 C791 (UniProt P16885) the value was 0.15; for PM20D2 C14 (UniProt Q8IYS1), 0.0142; for PLEKHA7 C699 (UniProt Q6IQ23), -0.0205. For PHF3 C561 (UniProt Q92576) the value was -0.0297. Regarding PKN2 C394 (UniProt Q16513), the “log2 mean competition ratio” value amounted to 0.248. For PIKFYVE C1663 (UniProt Q9Y2I7) the value was 0.112; for PMPCB C485 (UniProt O75439), 0.143.
